Here are results for three substances from article PMC11361374.

Chains of the proteins cited; added tags and fusions are not shown. Residues count along the entry.
UniProt Q8NC56: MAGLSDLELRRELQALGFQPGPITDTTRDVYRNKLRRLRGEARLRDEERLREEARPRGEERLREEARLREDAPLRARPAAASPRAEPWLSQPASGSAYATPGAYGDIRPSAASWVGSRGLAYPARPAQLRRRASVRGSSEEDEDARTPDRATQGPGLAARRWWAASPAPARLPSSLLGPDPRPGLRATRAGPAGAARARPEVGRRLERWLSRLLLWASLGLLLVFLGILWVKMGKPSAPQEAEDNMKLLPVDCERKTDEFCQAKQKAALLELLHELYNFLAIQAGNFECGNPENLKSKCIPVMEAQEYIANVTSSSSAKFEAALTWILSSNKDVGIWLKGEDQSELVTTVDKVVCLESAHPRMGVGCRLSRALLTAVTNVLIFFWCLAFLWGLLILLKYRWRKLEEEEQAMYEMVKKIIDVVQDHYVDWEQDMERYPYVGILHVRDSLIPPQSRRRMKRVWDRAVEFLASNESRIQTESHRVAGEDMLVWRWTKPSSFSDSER
UniProt P02545, residues 1-646: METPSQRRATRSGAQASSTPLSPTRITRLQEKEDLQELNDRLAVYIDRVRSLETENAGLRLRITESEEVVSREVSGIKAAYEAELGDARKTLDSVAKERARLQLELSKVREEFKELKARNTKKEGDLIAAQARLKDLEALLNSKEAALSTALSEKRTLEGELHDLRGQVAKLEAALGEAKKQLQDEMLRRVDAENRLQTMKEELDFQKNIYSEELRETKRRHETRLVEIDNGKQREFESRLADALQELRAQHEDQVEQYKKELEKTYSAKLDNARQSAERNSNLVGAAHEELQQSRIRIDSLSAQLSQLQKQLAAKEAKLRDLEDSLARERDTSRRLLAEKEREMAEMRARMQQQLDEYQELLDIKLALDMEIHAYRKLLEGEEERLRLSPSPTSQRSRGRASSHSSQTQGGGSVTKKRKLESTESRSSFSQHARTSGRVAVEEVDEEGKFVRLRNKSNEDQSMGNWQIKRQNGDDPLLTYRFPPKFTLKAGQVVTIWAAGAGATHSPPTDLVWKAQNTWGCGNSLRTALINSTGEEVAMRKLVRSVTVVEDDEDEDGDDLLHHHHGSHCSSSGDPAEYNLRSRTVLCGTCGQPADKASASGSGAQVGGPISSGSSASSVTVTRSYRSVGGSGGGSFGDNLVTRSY
UniProt Q13216: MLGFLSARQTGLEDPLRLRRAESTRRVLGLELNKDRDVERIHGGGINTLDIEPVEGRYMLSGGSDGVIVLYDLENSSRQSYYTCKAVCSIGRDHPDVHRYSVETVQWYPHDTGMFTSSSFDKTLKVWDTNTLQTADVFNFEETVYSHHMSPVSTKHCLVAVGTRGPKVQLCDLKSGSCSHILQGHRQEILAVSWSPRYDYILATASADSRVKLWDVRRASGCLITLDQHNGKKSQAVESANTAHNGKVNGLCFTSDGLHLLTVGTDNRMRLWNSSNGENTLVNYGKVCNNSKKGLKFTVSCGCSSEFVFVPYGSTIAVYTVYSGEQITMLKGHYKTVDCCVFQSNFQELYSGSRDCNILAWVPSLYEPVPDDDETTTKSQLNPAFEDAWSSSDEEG

Results are given in words; binding and its absence hold for the method and conditions named. Binding seen in cells or lysates may run through a third protein. Some binding calls cover weakened binding; strength is not graded here.

One experiment has as its target LEMD2-GFP (UniProt Q8NC56). Kind of experiment: co-IP; GFP pulldown (GFP-Trap Magnetic Agarose) of LEMD2-GFP from lysates of WT(HA-CSA) cells overexpressing Flag-CSA + LEMD2-GFP; control GFP + Flag-CSA; 0.5% NP-40, 150 mM NaCl lysis buffer plus RIPA extract of the pellet; 4 h at 4°C; immunoblot.
Experiment [1] has as its target lamin A/C (human (endogenous in CS3BE patient-derived fibroblasts)) (UniProt P02545). Nature of the experiment: proximity ligation; Duolink PLA on fixed, permeabilised WT(HA-CSA) and CS-A cells with mouse anti-lamin A/C and rabbit anti-LEMD2; single antibodies as negative controls; foci per nucleus counted.

With Flag-CSA (from UniProt Q13216 1-396), the binding entry in the experiment with LEMD2-GFP is given as “binds”. For HA-CSA (from UniProt Q13216 1-396), in the experiment with LEMD2-GFP, the binding result is “binds”. LEMD2 (from UniProt Q8NC56 1-503): the binding result in experiment [1] is given as “binds”.
